Test results taken from patent publication US20090142372A1.
Results are given in words; binding and its absence hold for the method and conditions named. Some results given as binding are weak or reduced against the parent protein; the word gives no strength.

Amino acid sequences for entries named in this document (tags omitted). Residues count along the entry.
UniProt P08603, residues 19-1231: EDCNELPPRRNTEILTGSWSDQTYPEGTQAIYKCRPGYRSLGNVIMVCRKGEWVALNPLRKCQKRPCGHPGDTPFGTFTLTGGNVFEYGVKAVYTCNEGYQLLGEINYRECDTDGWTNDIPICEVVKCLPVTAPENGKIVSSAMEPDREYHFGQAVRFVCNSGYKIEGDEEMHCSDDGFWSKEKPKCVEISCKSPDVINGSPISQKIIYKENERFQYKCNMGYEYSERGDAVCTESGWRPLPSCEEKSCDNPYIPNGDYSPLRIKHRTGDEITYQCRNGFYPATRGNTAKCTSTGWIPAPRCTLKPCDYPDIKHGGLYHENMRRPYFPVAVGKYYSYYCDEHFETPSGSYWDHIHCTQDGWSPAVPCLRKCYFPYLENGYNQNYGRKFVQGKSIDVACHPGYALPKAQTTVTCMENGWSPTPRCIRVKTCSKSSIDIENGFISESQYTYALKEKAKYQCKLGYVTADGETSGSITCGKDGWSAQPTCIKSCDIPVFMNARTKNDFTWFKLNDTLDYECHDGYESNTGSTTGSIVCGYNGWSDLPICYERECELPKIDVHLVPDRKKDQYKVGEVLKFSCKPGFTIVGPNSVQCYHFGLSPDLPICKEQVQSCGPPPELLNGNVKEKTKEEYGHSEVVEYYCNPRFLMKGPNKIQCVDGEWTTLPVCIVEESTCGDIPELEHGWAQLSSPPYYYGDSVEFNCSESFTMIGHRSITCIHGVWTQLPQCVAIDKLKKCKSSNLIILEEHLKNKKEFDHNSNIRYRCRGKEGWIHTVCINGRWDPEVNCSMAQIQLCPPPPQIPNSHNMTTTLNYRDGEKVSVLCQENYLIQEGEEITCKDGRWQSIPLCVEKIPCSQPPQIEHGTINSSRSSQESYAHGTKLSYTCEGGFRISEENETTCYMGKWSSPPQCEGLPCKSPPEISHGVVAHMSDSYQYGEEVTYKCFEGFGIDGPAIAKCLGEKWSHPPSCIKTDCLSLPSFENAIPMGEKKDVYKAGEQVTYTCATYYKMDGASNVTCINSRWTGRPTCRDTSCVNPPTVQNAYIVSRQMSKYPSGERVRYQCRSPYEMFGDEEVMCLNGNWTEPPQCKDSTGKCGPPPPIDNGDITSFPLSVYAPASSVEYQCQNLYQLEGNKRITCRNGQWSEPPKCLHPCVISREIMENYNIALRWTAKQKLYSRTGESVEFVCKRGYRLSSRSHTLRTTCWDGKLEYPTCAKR

Biological target: T1, Human bone BSP (human) (UniProt P21815)
T1 sequence (looked up): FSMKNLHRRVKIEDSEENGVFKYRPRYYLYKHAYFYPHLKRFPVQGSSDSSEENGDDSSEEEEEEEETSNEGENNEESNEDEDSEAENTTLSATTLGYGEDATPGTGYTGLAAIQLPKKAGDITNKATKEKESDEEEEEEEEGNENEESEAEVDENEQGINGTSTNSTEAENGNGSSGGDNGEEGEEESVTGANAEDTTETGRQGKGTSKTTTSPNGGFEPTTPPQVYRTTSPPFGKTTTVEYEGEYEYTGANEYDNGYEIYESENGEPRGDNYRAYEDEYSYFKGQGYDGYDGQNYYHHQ
Assay: affinity column, one partner coupled to cyanogen bromide-activated Sepharose 4B

binding: binds
Substance: complement factor H (CFH) (from UniProt P08603 19-1231)
